Measured values taken from patent US20080241125A1 (Dana-Farber, published 2008).
No constants are given. Whether binding was seen depends on the method and setting. In cells and extracts the contact can be indirect. Some results given as binding are weak or reduced against the parent protein; the word gives no strength.

The chains behind the UniProt entries cited, without tags or fusion partners. Where a name states a change or a piece, a line headed by the entry shows the natural chain unless it says otherwise.
UniProt Q9Y6K9: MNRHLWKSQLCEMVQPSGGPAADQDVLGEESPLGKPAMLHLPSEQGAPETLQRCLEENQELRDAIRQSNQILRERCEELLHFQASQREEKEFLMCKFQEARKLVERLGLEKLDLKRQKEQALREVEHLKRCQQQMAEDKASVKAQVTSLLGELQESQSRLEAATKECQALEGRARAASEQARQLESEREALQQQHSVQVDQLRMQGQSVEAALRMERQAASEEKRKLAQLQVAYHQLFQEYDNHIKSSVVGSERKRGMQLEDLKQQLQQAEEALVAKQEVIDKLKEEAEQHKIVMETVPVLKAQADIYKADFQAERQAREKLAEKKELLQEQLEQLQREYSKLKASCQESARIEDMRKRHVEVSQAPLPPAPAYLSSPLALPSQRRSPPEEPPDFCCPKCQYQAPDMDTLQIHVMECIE
UniProt P15941: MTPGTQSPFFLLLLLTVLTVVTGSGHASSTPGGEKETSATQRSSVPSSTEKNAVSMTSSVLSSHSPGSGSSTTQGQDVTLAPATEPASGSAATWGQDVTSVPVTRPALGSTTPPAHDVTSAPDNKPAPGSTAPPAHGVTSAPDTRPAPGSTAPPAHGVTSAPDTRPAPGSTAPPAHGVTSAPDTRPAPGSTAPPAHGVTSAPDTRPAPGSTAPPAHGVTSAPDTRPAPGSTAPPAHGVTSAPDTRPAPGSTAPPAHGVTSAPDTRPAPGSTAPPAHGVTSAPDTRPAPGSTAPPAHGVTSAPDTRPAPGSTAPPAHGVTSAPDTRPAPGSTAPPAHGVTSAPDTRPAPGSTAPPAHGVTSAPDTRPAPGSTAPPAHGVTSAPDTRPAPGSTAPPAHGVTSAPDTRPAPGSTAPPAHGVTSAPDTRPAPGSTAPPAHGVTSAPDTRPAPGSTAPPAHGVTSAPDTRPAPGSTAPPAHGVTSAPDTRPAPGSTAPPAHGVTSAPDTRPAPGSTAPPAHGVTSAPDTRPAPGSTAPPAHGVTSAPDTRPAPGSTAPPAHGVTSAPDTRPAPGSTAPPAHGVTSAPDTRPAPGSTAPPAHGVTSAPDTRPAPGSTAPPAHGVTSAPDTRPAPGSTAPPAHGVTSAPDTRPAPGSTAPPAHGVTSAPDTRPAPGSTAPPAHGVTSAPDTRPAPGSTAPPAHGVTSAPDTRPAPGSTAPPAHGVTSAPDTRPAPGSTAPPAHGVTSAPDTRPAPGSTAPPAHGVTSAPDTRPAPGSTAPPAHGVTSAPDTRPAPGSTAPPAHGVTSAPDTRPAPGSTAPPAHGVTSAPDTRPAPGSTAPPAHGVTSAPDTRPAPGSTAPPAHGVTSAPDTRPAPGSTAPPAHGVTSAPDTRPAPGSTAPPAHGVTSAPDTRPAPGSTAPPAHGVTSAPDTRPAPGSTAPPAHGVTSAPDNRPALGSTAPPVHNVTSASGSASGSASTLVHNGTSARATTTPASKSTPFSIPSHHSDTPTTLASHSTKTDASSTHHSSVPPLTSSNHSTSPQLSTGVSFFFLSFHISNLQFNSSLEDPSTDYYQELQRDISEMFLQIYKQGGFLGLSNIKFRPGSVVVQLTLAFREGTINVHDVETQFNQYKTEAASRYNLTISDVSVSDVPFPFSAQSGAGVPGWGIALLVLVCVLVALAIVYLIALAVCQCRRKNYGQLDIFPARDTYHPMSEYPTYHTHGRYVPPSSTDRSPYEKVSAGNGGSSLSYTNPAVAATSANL

What was measured:
purified IKKγ = target: T1, purified IKKγ (human, UniProt Q9Y6K9 1-419, limits assumed); test: GST pull-down: GST-MUC1-CD (wild-type reference) on glutathione beads with IKKγ, anti-IKKγ immunoblot (FIG. 11B)
T1 construct: also called NEMO

GST-IKKγ (human) [1] = target: GST-IKKγ (human) (UniProt Q9Y6K9); test: GST pull-down: GST-IKKγ on glutathione beads with purified MUC1-CD, anti-MUC1-C immunoblot (FIG. 5B)
[2] = target: GST-IKKγ(197-419) (human) (UniProt Q9Y6K9); test: GST pull-down: GST-IKKγ fusion proteins on glutathione beads with MUC1-CD, anti-MUC1-C immunoblot (FIG. 5D)
GST-IKKγ (human) [3] = target: GST-IKKγ (human) (UniProt Q9Y6K9); test: GST pull-down: GST-IKKγ on glutathione beads with purified MUC1-CD, anti-MUC1-C immunoblot (legend of FIG. 5B)

binding (purified IKKγ)	binding (GST-IKKγ (human) [1])	binding [2]	binding (GST-IKKγ (human) [3])	Substance
binds				GST-MUC1-CD (glutathione S-transferase fused to the MUC1-CD polypeptide) (from UniProt P15941 1184-1255)
	binds	binds	binds	MUC1 cytoplasmic domain (MUC1-CD), purified, GST moiety removed with thrombin (from UniProt P15941 1184-1255)
